PubChem BioAssay AID493246 | Drosophila RNAi Screening Center | 2011

- Aim: 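Identify essential fly genes by loss of cell viability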 (primary screen)
- System: Drosophila Kc and S2R+ cells
- Knock-down reagent: long dsRNA against Drosophila genes
- Measurement: 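Cell number per well after knock-down, printed as raw plate values; calls were based on per-plate z-scores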
- Reading the numbers: Kc cell number and S2R+ cell number: higher = more cells remaining
- Call rule: 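Active when the per-plate z-score of cell number is 3 or more in the direction of fewer cells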
The screen tested about 21,000 reagents; below is a random part of those that have a named target and a result. Over the whole deposit, 429 (2%) got an active call. 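Values are raw and not normalised between plates; calls rest on per-plate z-scores that were not deposited.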 The numbers tell different reagents against one gene apart. Names joined by + are all predicted targets of the reagent. The record does not give: the amount of reagent, the time to read-out.

Gene | reagent | Kc cell number, rep 1 | Kc cell number, rep 2 | S2R+ cell number, rep 1 | S2R+ cell number, rep 2 | call
CG5181 (GeneID 34018) | 1 | 1.32e6 | 1.37e6 | 5.64e5 | 6.03e5 | inactive
Sec6 (GeneID 37142) | 1 | 1.46e6 | 1.66e6 | 1.17e6 | 1.25e6 | inactive
Men (GeneID 47173) | 1 | 1.61e6 | 1.75e6 | 1.12e6 | 1.28e6 | inactive
Men (GeneID 47173) | 2 | 1.28e6 | 1.32e6 | 9.83e5 | 1.10e6 | inactive
gskt (GeneID 318552) | 1 | 1.28e6 | 1.67e6 | 1.13e6 | 1.19e6 | inactive
LManIV (GeneID 34204) | 1 | 1.65e6 | 1.58e6 | 1.17e6 | 1.28e6 | inactive
CG5177 (GeneID 34017) | 1 | 1.25e6 | 1.42e6 | 6.64e5 | 4.73e5 | inactive
APC10 (GeneID 36975) | 1 | 1.59e6 | 1.64e6 | 1.12e6 | 1.25e6 | inactive
CG32107 (GeneID 317856) | 1 | 1.43e6 | 1.38e6 | 1.11e6 | 1.17e6 | inactive
CG12310 (GeneID 39634) | 1 | 1.34e6 | 1.43e6 | 1.18e6 | 1.25e6 | inactive
COX6AL2 (GeneID 40066) | 1 | 1.59e6 | 1.64e6 | 1.24e6 | 1.39e6 | inactive
CG31267 (GeneID 318651) | 1 | 1.40e6 | 1.58e6 | 1.03e6 | 1.17e6 | inactive
Ctps (GeneID 39645) | 1 | 1.34e6 | 1.47e6 | 1.15e6 | 1.31e6 | inactive
Ctps (GeneID 39645) | 2 | 1.40e6 | 1.41e6 | 1.11e6 | 1.19e6 | inactive
Ctps (GeneID 39645) | 3 | 1.51e6 | 1.47e6 | 1.24e6 | 1.35e6 | inactive
CG14933 + CG42486 | 1 | 1.71e6 | 1.78e6 | 1.32e6 | 1.47e6 | inactive
CG2059 (GeneID 31663) | 1 | 1.53e6 | 1.55e6 | 1.08e6 | 1.20e6 | inactive
mgl (GeneID 8674055) | 1 | 1.51e6 | 1.45e6 | 1.02e6 | 1.12e6 | inactive
mgl (GeneID 8674055) | 2 | 5.86e5 | – | 8.49e5 | – | inactive
mgl (GeneID 8674055) | 3 | 1.55e6 | 1.55e6 | 9.96e5 | 1.13e6 | inactive
mgl (GeneID 8674055) | 4 | 1.49e6 | 1.49e6 | 1.00e6 | 1.08e6 | inactive
CG14229 (GeneID 32980) | 1 | 1.57e6 | 1.59e6 | 8.99e5 | 1.07e6 | inactive
CG14313 (GeneID 42176) | 1 | 1.27e6 | 1.37e6 | 1.05e6 | 1.10e6 | inactive
TfAP-2 (GeneID 40398) | 1 | 1.27e6 | 1.54e6 | 1.27e6 | 1.31e6 | inactive
poe (GeneID 46243) | 1 | 1.37e6 | 1.39e6 | 7.13e5 | 8.14e5 | inactive
CG7945 + yellow-k | 1 | 1.67e6 | 1.61e6 | 1.21e6 | 1.38e6 | inactive
CG11227 (GeneID 33071) | 1 | 1.46e6 | 1.49e6 | 1.12e6 | 1.17e6 | inactive
Tep5Psi (GeneID 35250) | 1 | 1.61e6 | 1.72e6 | 1.29e6 | 4.11e5 | inactive
Tep5Psi (GeneID 35250) | 2 | 1.68e6 | 1.78e6 | 1.34e6 | 3.97e5 | inactive
Acp1 (GeneID 34052) | 1 | 1.69e6 | 1.68e6 | 1.19e6 | 1.31e6 | inactive
CG13455 (GeneID 39667) | 1 | 1.44e6 | 1.53e6 | 1.30e6 | 1.37e6 | inactive
mspo (GeneID 36632) | 1 | 1.54e6 | 1.53e6 | 1.27e6 | 1.31e6 | inactive
l(2)k10201 (GeneID 48373) | 1 | 1.63e6 | 1.68e6 | 1.35e6 | 1.48e6 | inactive
l(2)k10201 (GeneID 48373) | 2 | 1.71e6 | 1.66e6 | 1.43e6 | 1.46e6 | inactive
flip (GeneID 40539) | 1 | 1.32e6 | 1.37e6 | 1.28e6 | 1.28e6 | inactive
Gem3 (GeneID 39195) | 1 | 1.55e6 | 1.66e6 | 1.21e6 | 1.43e6 | inactive
Got2 (GeneID 33373) | 1 | 1.28e6 | 1.34e6 | 9.13e5 | 9.66e5 | inactive
Shal (GeneID 40129) | 1 | 1.44e6 | 1.54e6 | 1.09e6 | 1.21e6 | inactive
Shal (GeneID 40129) | 2 | 1.41e6 | 1.49e6 | 1.24e6 | 1.35e6 | inactive
srl (GeneID 40562) | 1 | 1.60e6 | 2.01e6 | 1.29e6 | 1.40e6 | inactive
MsR1 (GeneID 38298) | 1 | 1.42e6 | 1.49e6 | 9.96e5 | 1.26e6 | inactive
CG10184 (GeneID 42783) | 1 | 1.57e6 | 1.69e6 | 1.25e6 | 1.33e6 | inactive
BuGZ (GeneID 35004) | 1 | 1.19e6 | 1.26e6 | 1.16e6 | 1.26e6 | inactive
BuGZ (GeneID 35004) | 2 | 1.56e6 | 1.55e6 | 1.26e6 | 1.41e6 | inactive
Orc5 (GeneID 34794) | 1 | 1.59e6 | 1.63e6 | 1.21e6 | 1.31e6 | inactive
qin (GeneID 42236) | 1 | 1.27e6 | 1.27e6 | 1.14e6 | 1.21e6 | inactive
CG15461 (GeneID 50122) | 1 | 1.40e6 | 1.46e6 | 1.05e6 | 1.10e6 | inactive
CAH15 (GeneID 37366) | 1 | 1.50e6 | 1.67e6 | 1.42e6 | 3.16e5 | inactive
Axs (GeneID 32645) | 1 | 1.55e6 | 1.50e6 | 1.13e6 | 1.26e6 | inactive
kuz (GeneID 34772) | 1 | 1.25e6 | 1.29e6 | 1.19e6 | 1.31e6 | inactive
smash (GeneID 40583) | 1 | 1.56e6 | 1.53e6 | 1.41e6 | 1.51e6 | inactive
smash (GeneID 40583) | 2 | 1.49e6 | 2.00e6 | 1.24e6 | 1.33e6 | inactive
obe (GeneID 41891) | 1 | 1.51e6 | 1.67e6 | 1.37e6 | 1.49e6 | inactive
spg (GeneID 43404) | 1 | 1.54e6 | 1.58e6 | 1.03e6 | 1.16e6 | inactive
spg (GeneID 43404) | 2 | 1.59e6 | 1.60e6 | 1.07e6 | 1.18e6 | inactive
Arglu1 (GeneID 34320) | 1 | 1.53e6 | 1.56e6 | 1.34e6 | 1.49e6 | inactive
psh (GeneID 32832) | 1 | 1.63e6 | 1.66e6 | 1.22e6 | 1.35e6 | inactive
CG14907 + Mettl4 | 1 | 1.37e6 | 1.35e6 | 1.08e6 | 1.18e6 | inactive
CG14907 + Mettl4 | 2 | 1.37e6 | 1.43e6 | 1.13e6 | 1.21e6 | inactive

5 consecutive records from above, quoted:
Gene | reagent | Kc cell number, rep 1 | Kc cell number, rep 2 | S2R+ cell number, rep 1 | S2R+ cell number, rep 2 | call
qin (GeneID 42236) | 1 | 1.27e6 | 1.27e6 | 1.14e6 | 1.21e6 | inactive
CG15461 (GeneID 50122) | 1 | 1.40e6 | 1.46e6 | 1.05e6 | 1.10e6 | inactive
CAH15 (GeneID 37366) | 1 | 1.50e6 | 1.67e6 | 1.42e6 | 3.16e5 | inactive
Axs (GeneID 32645) | 1 | 1.55e6 | 1.50e6 | 1.13e6 | 1.26e6 | inactive
kuz (GeneID 34772) | 1 | 1.25e6 | 1.29e6 | 1.19e6 | 1.31e6 | inactive
